Experimental data: PubChem BioAssay AID504465 (National Center for Advancing Translational Sciences (NCATS), 2011)
The campaign covered roughly 2,100 compounds. About 210 (10%) were called active. The inconclusive results got no clear call from the source; some entries with a clear call stand among them for comparison. Calls follow the shape of the dose curve; as a rule, active = well fitted inhibition curve with a large enough effect; inconclusive = small, poorly fitted or top-dose-only effect, or effect the other way; inactive = no such curve, though single readings can be large or run the other way. Potencies beside an inconclusive call are fits to weak or partial responses and may not hold up.

Test: IN Cell qHTS Assay for Inhibitors of the mTORC1 Signaling Pathway in MEF (Tsc2-/-, p53-/-) Cells: Sytravon; also: nearly all actives have a fitted effect of over 60% in size
Conditions: phospho-rpS6 immunofluorescence, 24 h; series mostly up to 38.3 µM
Method in brief: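 Tsc2-/-, p53-/- MEFs (empty-vector) treated with compound 24 h at 37 degree Celsius, then fixed and stained for phospho-rpS6 Ser235/236 (Alexa-488) plus Hoechst. Reported as % positive cells, thresholds set against 7.5 nM rapamycin and DMSO wells.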
Potency is read from the fitted curve at half-maximal effect.

Which Potency does the source give for `CCN(CCN(C)C)C(=O)C1CCN(S(=O)(=O)c2c(C)noc2/C=C/c2ccccc2F)CC1` here?
The Potency was inconclusive: 20.7 µM [falling, partial curve, poor fit].

With `O=C(/C=C/c1cn(CC(O)CN2CCCCCC2)c2ccccc12)c1ccc(Br)cc1` (stereo unspecified) as the compound, how does the Potency read?
The Potency was inconclusive: 14.7 µM [falling, single point].

Which Potency does the source give for `CCOC(=O)c1scc(-c2ccccc2)c1S(=O)(=O)N1CCN(c2ccccc2OC)CC1` here?
Its Potency is inconclusive: 23.3 µM [falling, partial curve, poor fit].

For `COc1ccc(OC)c(NC(=O)c2sc3nc4c(cc3c2N)CCCCCC4)c1`, which Potency is on record?
Its Potency is inconclusive: 23.3 µM [falling, single point].

For `Cc1ccc(OC(C)C(=O)NCC2(N3CCOCC3)CCCCC2)cc1C` (stereo unspecified), which Potency is on record?
The Potency was inconclusive: 9.27 µM [falling, partial curve, poor fit].

With `CCN(CCCNC(=O)c1cc2c(=O)[nH]c3ccc(C)cc3c2s1)Cc1ccccc1` as the compound, how does the Potency read?
Its Potency is inconclusive: 4.14 µM [falling, full curve, poor fit].

Which Potency does the source give for `CCc1ccc(Sc2cc(C(=O)NCCCN3CCCC(C)C3)c3ccccc3n2)cc1` (stereo unspecified) here?
Its Potency is “inactive”.

With `CCOC(=O)c1c(NC(=O)c2ccc(S(=O)(=O)N(C)C)cc2)sc2c1CCN(C)C2` as the compound, how does the Potency read?
The Potency was inconclusive: 18.5 µM [falling, single point].

With `Cc1ccc(NC(=O)CSc2nc(-c3cccs3)cc(C(F)(F)F)n2)cc1C` as the compound, how does the Potency read?
The Potency was “inactive”.

For `COc1ccc(CNc2oc(COc3cccc(C)c3)nc2C#N)cc1`, which Potency is on record?
Its Potency is active: 3.69 µM.

With `CCCCN(CC)CCCNC(=O)C1CCN(c2nc3ccc(CC)cc3s2)CC1` as the compound, how does the Potency read?
Its Potency is inconclusive: 6.56 µM [falling, partial curve, poor fit].

With `CCCCOc1ccc(CNC(=O)c2ccc(-c3nc(CN4CCc5ccccc54)c(C)o3)cc2)cc1` as the compound, how does the Potency read?
Its Potency is inconclusive: 6.56 µM [falling, partial curve, poor fit].

For `CN1CCN(CCCNC(=O)Cn2c(-c3cccs3)cc3cc(Cl)ccc32)CC1`, which Potency is on record?
The Potency was inconclusive: 0.165 µM [falling, full curve, poor fit].

Which Potency does the source give for `CCOc1ccc(NC(=O)c2cnn(-c3ccc(C)c(Cl)c3)c2C2CCNCC2)cc1` here?
Its Potency is inconclusive: 26.1 µM [falling, single point].

Which Potency does the source give for `CC[C@@H](C)[C@@H](C(=O)Nc1ccc(C)cc1)N1Cc2ccccc2C1=O` here?
The Potency was “inactive”.

For `CCCCOc1cccc(NC(=O)c2cccc(C(=O)Nc3cccc(OCCCC)c3)c2)c1`, which Potency is on record?
Its Potency is active: 11.7 µM.

With `COc1cc(NC(=O)NCC2CCN(Cc3ccc(C)cc3)CC2)cc(OC)c1OC` as the compound, how does the Potency read?
Its Potency is inconclusive: 18.5 µM [falling, single point].

Which Potency does the source give for `Cc1ccc(C)c(Nc2cc(C(=O)NCCCN(C)C3CCCCC3)c3ccccc3n2)c1` here?
The Potency was inconclusive: 18.5 µM [falling, partial curve, poor fit].

With `CCS(=O)(=O)c1oc(-c2ccc(F)cc2)nc1S(=O)(=O)c1ccc(Br)cc1` as the compound, how does the Potency read?
Its Potency is active: 2.93 µM.

Which Potency does the source give for `CC(=O)C1=C(c2ccc(Cl)c(Cl)c2)N(C(C)=O)n2cnnc2S1` here?
The Potency was inconclusive: 9.27 µM [falling, single point].

With `COc1ccc(Cl)cc1N(C)C(=O)Cc1noc2ccc(C)cc12` as the compound, how does the Potency read?
The Potency was inconclusive: 18.5 µM [falling, single point].

With `Cc1cccc(Cc2c(C)nc3nc(SCC(=O)NCc4ccc(F)cc4)nn3c2C)c1` as the compound, how does the Potency read?
Its Potency is “inactive”.

Which Potency does the source give for `CCC(C)NC(=O)c1ccc2c(c1)N=C(C)c1cc(C)ccc1S2` (stereo unspecified) here?
The Potency was “inactive”.

Which Potency does the source give for `COc1ccccc1N1CCN(C(=O)c2cnc(N3CCCCC3)c3ccccc23)CC1` here?
The Potency was active: 5.85 µM.

With `CCc1ccc(NC(=O)C2CCCN(S(=O)(=O)c3c(C)noc3/C=C/N(C)C)C2)cc1` (stereo unspecified) as the compound, how does the Potency read?
The Potency was “inactive”.

With `CCOC(=O)c1ccccc1NC(=O)NCc1cccn1Cc1ccc(F)cc1` as the compound, how does the Potency read?
Its Potency is inconclusive: 18.5 µM [falling, single point].

With `CCc1ccccc1NC(=O)Nc1cc(C(=O)NCc2ccc(OC)cc2)ccc1N1CCCC1` as the compound, how does the Potency read?
Its Potency is inconclusive: 26.1 µM [falling, single point].

With `CCOCCCNC(=O)c1cc2c(=O)[nH]c3ccccc3c2n1C` as the compound, how does the Potency read?
The Potency was inconclusive: 26.1 µM [falling, single point].

With `Cc1ccc(OCC(=O)Nc2ccc3nc(Nc4cccc(Cl)c4)cc(C)c3c2)cc1` as the compound, how does the Potency read?
The Potency was active: 14.7 µM.

Which Potency does the source give for `CSc1cccc(NC(=O)Cn2cnc(S(=O)(=O)N3CCCC3)c2)c1` here?
The Potency was “inactive”.

Which Potency does the source give for `COc1ccc(CNC(=O)C(=O)NCC(c2ccco2)S(=O)(=O)c2ccc(C)cc2)cc1` (stereo unspecified) here?
Its Potency is inconclusive: 11.7 µM [falling, single point].

For `COc1cc2nc(Nc3ccc(F)cc3)nc(N)c2cc1OC`, which Potency is on record?
The Potency was inconclusive: 20.7 µM [falling, single point].

Which Potency does the source give for `Cc1cccc(OCC(=O)N(Cc2ccc(C(C)C)cc2)Cc2ccco2)c1C` here?
Its Potency is inconclusive: 11.7 µM [falling, partial curve].

Which Potency does the source give for `Cc1ccc(CNC(=O)c2sc3nc(-c4ccc(F)cc4)ccc3c2N)cc1` here?
The Potency was inconclusive: 1.47 µM [falling, partial curve, poor fit].

With `CCC1CCc2nc3sc(C(=O)Nc4ccc(F)c(F)c4)c(N)c3cc2C1` (stereo unspecified) as the compound, how does the Potency read?
The Potency was active: 5.85 µM.

With `CCN1CCOC(=O)C1CC(=O)Nc1cc(Cl)ccc1C` (stereo unspecified) as the compound, how does the Potency read?
The Potency was inconclusive: 23.3 µM [falling, partial curve, poor fit].

With `COc1ccc(Cl)cc1NC(=O)c1sc2nc3c(cc2c1N)CN(C)CC3` as the compound, how does the Potency read?
Its Potency is inconclusive: 26.1 µM [falling, single point].

With `CCCn1c2ccccc2c2cnn(CC(=O)NCCCN(Cc3ccccc3)C(C)C)c(=O)c21` as the compound, how does the Potency read?
Its Potency is inconclusive: 26.1 µM [falling, single point].

With `COc1ccc(Nc2cc(C(=O)NCCCN(C)C3CCCCC3)c3ccccc3n2)c(OC)c1` as the compound, how does the Potency read?
Its Potency is inconclusive: 16.5 µM [falling, partial curve, poor fit].

Which Potency does the source give for `O=C(CCCCn1c(=O)c2ccccc2n(Cc2cccc(Cl)c2)c1=O)NCc1ccc2c(c1)OCO2` here?
The Potency was inconclusive: 10.4 µM [falling, single point].

For `CCN(CC)CCNC(=O)c1ccc(-n2c(-c3ccccc3)cc3c2CCCC3)cc1`, which Potency is on record?
Its Potency is “inactive”.

With `CC1=Nc2cc(C(=O)NC(C)C)ccc2Sc2ccc(C)cc21` as the compound, how does the Potency read?
The Potency was “inactive”.

For `CCOc1ccc(S(=O)(=O)Nc2cc(Cl)ccc2OC)c2cccnc12`, which Potency is on record?
Its Potency is “inactive”.

For `O=c1oc2ccccc2cc1-c1cn2cc(Cc3ccccc3F)sc2n1`, which Potency is on record?
Its Potency is “inactive”.

With `COCCn1c(=N)c(C(=O)NCc2ccco2)cc2c(=O)n3cc(C)ccc3nc21` as the compound, how does the Potency read?
The Potency was active: 13.1 µM.

For `COc1ccc(N(C)C(=O)c2cc(S(=O)(=O)N3CCc4ccccc43)cn2C)c(OC)c1`, which Potency is on record?
Its Potency is inconclusive: 0.104 µM [falling, full curve, poor fit].

Which Potency does the source give for `COC(=O)CN1C(=O)C(O)(CC(=O)c2ccc(F)cc2)c2ccccc21` (stereo unspecified) here?
Its Potency is “inactive”.

With `CCCCN(C)CC(O)Cn1cc(/C=C/C(=O)c2ccc(OCC)cc2)c2ccccc21` (stereo unspecified) as the compound, how does the Potency read?
Its Potency is inconclusive: 23.3 µM [falling, single point].

For `CSc1ccc(C2c3[nH]c4ccccc4c3CCN2C(=O)CCC2CCCC2)cc1` (stereo unspecified), which Potency is on record?
Its Potency is inconclusive: 1.17 µM [falling, full curve, poor fit].

With `O=C(CN(c1cccc(C(F)(F)F)c1)S(=O)(=O)c1ccccc1)Nc1cccc(Cl)c1` as the compound, how does the Potency read?
Its Potency is inconclusive: 18.5 µM [falling, single point].

Which Potency does the source give for `CCOC(=O)c1cnc2c(ccc3ccccc32)c1Nc1ccc(OC)cc1OC` here?
Its Potency is inconclusive: 5.21 µM [falling, partial curve].

With `CCOc1cc(CNCCSc2nnnn2C)cc(Cl)c1OCc1ccc(Cl)cc1` as the compound, how does the Potency read?
The Potency was inconclusive: 13.1 µM [falling, single point].

Which Potency does the source give for `Cc1ccc2ccc3cc(C(=O)Nc4ccc(C)c(F)c4)nc3c2[nH]1` here?
Its Potency is inconclusive: 26.1 µM [falling, single point].

For `Cc1cc(NC(=O)c2ccco2)cc(-c2nc3cc(Cl)ccc3o2)c1O`, which Potency is on record?
Its Potency is inconclusive: 18.5 µM [falling, single point].

For `COC(=O)CN1C(=O)C(C)(C)c2cc(S(=O)(=O)Nc3ccc(Br)cc3F)ccc21`, which Potency is on record?
The Potency was inconclusive: 14.7 µM [falling, single point].

With `COc1ccc(CCNC(=O)c2cc3n(n2)CCCN(Cc2ccc(C)cc2)C3=O)cc1OC` as the compound, how does the Potency read?
Its Potency is “inactive”.

Which Potency does the source give for `COc1ccc(-c2nc(SCC(=O)Nc3ccc4c(c3)OCCO4)c(-c3ccc(F)cc3)[nH]2)cc1` here?
Its Potency is “inactive”.

For `COc1ccc(OC)c(C(=O)CC2(O)C(=O)N(Cc3ccccc3C)c3ccccc32)c1` (stereo unspecified), which Potency is on record?
The Potency was inconclusive: 13.1 µM [falling, partial curve, poor fit].

With `Cc1ccccc1Nc1c(-c2c(F)cccc2Cl)nc2ccc(Br)cn12` as the compound, how does the Potency read?
The Potency was inconclusive: 5.21 µM [falling, single point].

Which Potency does the source give for `COCc1nnc(NC(=O)c2cc(OC)c(OC)c(OC)c2)s1` here?
The Potency was inconclusive: 23.3 µM [falling, single point].

With `Cc1cccc(CS(=O)(=O)c2ncc(Cl)c(C(=O)Nc3nnc(C(C)C)s3)n2)c1` as the compound, how does the Potency read?
Its Potency is inconclusive: 26.1 µM [falling, single point].

Which Potency does the source give for `CCN1CCOC(=O)C1CC(=O)Nc1ccc(Br)cc1` (stereo unspecified) here?
Its Potency is “inactive”.

With `COc1cc(Nc2nc(SCc3ccccc3Cl)nc3ccccc23)cc(OC)c1` as the compound, how does the Potency read?
Its Potency is inconclusive: 23.3 µM [falling, single point].

For `CCOCc1cc(CN2CCN(c3ccccc3OC)CC2)c(O)c2ncccc12`, which Potency is on record?
The Potency was inconclusive: 0.0465 µM [falling, full curve, poor fit].

Which Potency does the source give for `CCOc1ccc(N2C(=O)c3[nH]nc(-c4ccc(OC)cc4)c3C2c2cccs2)cc1` (stereo unspecified) here?
The Potency was “inactive”.

With `O=C(CN1C(=O)CC(c2ccccc2)=Nc2ccccc21)Nc1ccc(Br)cc1` as the compound, how does the Potency read?
The Potency was inconclusive: 5.21 µM [falling, single point].
